{"sequences": {"note": "By UniProt entry, the sequences of proteins in these tests, tags left out. Where a name states a change or a piece, a line headed by the entry shows the natural chain unless it says otherwise.", "UniProt P51450": "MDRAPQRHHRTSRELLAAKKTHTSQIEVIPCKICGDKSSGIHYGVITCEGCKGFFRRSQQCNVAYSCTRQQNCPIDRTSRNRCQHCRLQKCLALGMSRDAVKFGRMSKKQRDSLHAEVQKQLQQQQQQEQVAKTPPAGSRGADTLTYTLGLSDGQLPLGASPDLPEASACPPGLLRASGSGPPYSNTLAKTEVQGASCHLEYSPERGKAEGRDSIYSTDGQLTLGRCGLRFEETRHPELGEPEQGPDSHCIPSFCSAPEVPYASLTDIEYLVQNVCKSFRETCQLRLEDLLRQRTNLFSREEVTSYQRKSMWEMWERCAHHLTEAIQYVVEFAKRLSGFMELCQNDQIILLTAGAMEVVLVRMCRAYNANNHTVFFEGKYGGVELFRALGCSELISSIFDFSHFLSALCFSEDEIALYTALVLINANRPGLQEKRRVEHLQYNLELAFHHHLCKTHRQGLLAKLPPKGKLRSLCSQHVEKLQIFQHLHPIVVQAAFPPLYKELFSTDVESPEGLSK"}, "source": "PubChem BioAssay AID2551", "about": "(National Center for Advancing Translational Sciences (NCATS), 2010)", "note": "Among all 310,000 compounds or so, about 17,000 (5.5%) were called active. The shares of active, inactive and inconclusive entries below differ from those in the screen. The call rests on the fitted dose curve; in most records, active means well fitted inhibition curve with a large enough effect; inconclusive means small, poorly fitted or top-dose-only effect, or effect the other way; inactive means no such curve, though single readings can be large or run the other way. Potencies beside an inconclusive call are fits to weak or partial responses and may not hold up. Potency means the concentration at half of the fitted maximal effect.", "data": [{"target": "Nuclear receptor ROR-gamma (Mus musculus) (UniProt P51450)", "assay": "qHTS for inhibitors of ROR gamma transcriptional activity; further: nearly all actives have a fitted effect of over 60% in size", "conditions": "Drosophila S2 Gal4-RORgamma UAS-luciferase reporter, 20 h; series mostly up to 53.6 µM", "summary_of_the_method": "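Schneider cells (Drosophila), stable Gal4 DBD–ROR gamma + UAS-luc; 1 hr cmpd preincubation; Cu2+ induction 700 uM final; 20 hr ambient; luminescence.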", "values": [{"smiles": "CC(=O)Nc1nc(-c2cccc3ccccc23)cs1", "Potency": "inactive"}, {"smiles": "CC(C)c1onc(C(=O)NCCc2ccccc2)c1[N+](=O)[O-]", "Potency": "inactive"}, {"smiles": "Cn1c(SCc2ccccc2Br)nc2ccccc2c1=O", "Potency": "inactive"}, {"smiles": "COc1ccc(CCN(C)Cc2c(O)ccc3ccccc23)cc1OC", "Potency": "inactive"}, {"smiles": "Cc1ccccc1CNC(=O)c1ccc2nc(N3CCOCC3)sc2c1", "Potency": "inactive"}, {"smiles": "CO/N=C1/c2cc(OC)ccc2O[C@@H](c2cccc(OC)c2)[C@H]1O", "Potency": "inconclusive: 5.01 µM [inhibitor, single point]"}, {"smiles": "O=C(CSc1nc2ccc([N+](=O)[O-])cc2s1)c1ccc2ccccc2c1", "Potency": "inactive"}, {"smiles": "O=[N+]([O-])c1cc(/C=N\\Nc2nc(-c3ccccc3)cs2)ccc1O", "Potency": "inconclusive: 35.5 µM [inhibitor, single point]"}, {"smiles": "CN(C(=O)c1cccc(N2C(=O)C3CC=CCC3C2=O)c1)C1CCCCC1", "note": "(stereo not drawn)", "Potency": "inconclusive: 31.6 µM [inhibitor, single point]"}, {"smiles": "Cc1ccc(C)c(OCc2cc(C(=O)N3CCc4sccc4C3)no2)c1", "Potency": "active: 2 µM"}, {"smiles": "Cc1cc(C)cc(NC(=S)N(C)C)c1", "Potency": "active: 10 µM"}, {"smiles": "Cc1ccc(NC(=O)CN(c2ccc3c(c2)OCO3)S(=O)(=O)c2c(C)n[nH]c2C)cc1", "Potency": "inconclusive: 0.1 µM [inhibitor, full curve, poor fit]"}, {"smiles": "COc1cccc(CNc2ncc(Br)cc2Br)c1O", "Potency": "inconclusive: 2.24 µM [activator, partial curve]"}, {"smiles": "O=c1[nH]c(Cc2ccccn2)nc2scc(-c3ccc(Cl)cc3)c12", "Potency": "active: 5.62 µM"}, {"smiles": "CC1Cc2ccccc2N1C(=O)CSc1nnc(-c2ccc(S(=O)(=O)N3CCOCC3)cc2)n1C", "note": "(stereo not drawn)", "Potency": "inactive"}, {"smiles": "CCNC(=S)/N=C(/Nc1ccccc1)Nc1nc(C)cc(C)n1", "Potency": "active: 0.794 µM"}, {"smiles": "COCCNC(=S)NCCCNc1nc2cc3c(cc2cc1C#N)OCO3", "Potency": "inconclusive: 5.62 µM [inhibitor, single point]"}, {"smiles": "Cc1ccc(S(=O)(=O)Oc2ccc(/C=N/NC(=O)c3nn(C)cc3[N+](=O)[O-])cc2)cc1", "Potency": "inactive"}, {"smiles": "O=C(NC(=S)N1CCc2ccccc21)c1ccc(Br)o1", "Potency": "active: 0.251 µM"}, {"smiles": "C/C(=N\\NC(=O)Cc1ccc(Cl)c(Cl)c1)c1cccnc1", "Potency": "inconclusive: 17.8 µM [activator, partial curve]"}, {"smiles": "CCOc1cc(C)cc2oc(=O)cc(-c3ccccc3)c12", "Potency": "inactive"}, {"smiles": "C=C(C)C1CC=C(C)/C(=N/NC(=O)COc2ccc(C)cc2)C1", "note": "(stereo not drawn)", "Potency": "inconclusive: 5.01 µM [inhibitor, single point]"}, {"smiles": "S=c1[nH]nc(C2CCCCC2)n1/N=C/c1ccccc1Br", "Potency": "inconclusive: 22.4 µM [inhibitor, single point]"}]}]}
